Source: PMC6838142, “Nano-Antagonist Alleviates Inflammation and Allows for MRI of Atherosclerosis” (Nanotheranostics, 2019)
No constants are given. Whether binding was seen depends on the method and setting. Binding calls can cover weak binding; strength is not graded here.

Protein sequences, listed by entry. Tags and fused reporters are not part of them. Lines headed by an entry give the natural chain unless they say otherwise; changes in a name come on top. Residues count along the entry.
UniProt P41597: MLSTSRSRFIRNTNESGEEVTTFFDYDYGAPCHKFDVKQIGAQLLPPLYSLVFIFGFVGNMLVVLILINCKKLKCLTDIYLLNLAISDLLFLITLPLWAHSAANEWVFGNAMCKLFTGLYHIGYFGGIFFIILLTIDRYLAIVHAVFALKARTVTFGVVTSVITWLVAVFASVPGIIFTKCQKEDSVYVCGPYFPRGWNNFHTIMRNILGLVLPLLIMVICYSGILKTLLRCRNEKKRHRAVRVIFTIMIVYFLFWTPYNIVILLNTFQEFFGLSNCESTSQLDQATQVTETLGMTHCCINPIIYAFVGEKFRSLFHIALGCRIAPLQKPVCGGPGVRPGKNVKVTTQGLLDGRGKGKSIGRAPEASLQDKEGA
UniProt P13500, residues 24-99: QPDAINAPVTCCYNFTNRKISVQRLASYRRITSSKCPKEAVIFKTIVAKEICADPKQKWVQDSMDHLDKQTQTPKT

Biological target: recombinant CCR2 protein (CC chemokine receptor 2) (UniProt P41597)
Experiment: ELISA; recombinant CCR2 coated at 2 µg/mL on clear plates; recombinant human CCL2 at varying concentrations in PBS added together with 1 mM free peptide (in dimethylformamide), 1 h at room temperature; detected with biotin anti-MCP-1 antibody and streptavidin-HRP; both purified

recombinant human CCL2 (CC chemokine ligand 2) (from UniProt P13500 24-99)
binding: binds
